These are yes or no findings as the source states them, for the method shown. Some results given as binding are weak or reduced against the parent protein; the word gives no strength.
B1: clone 239 (designed binder)
chain: MIPGGLSEAKPATPEIQEIVDKVKPQLEEKTGETYGKLEAVQYKTQVVGWIKVDNVLGTNYYIKVRAGDNKYMHLKVFKSLWQDHHNVKREDLVLTGYQVDKNKDDELTGF
B2: clone 240 (designed binder)
chain: MIPGGLSEAKPATPEIQEIVDKVKPQLEEKTGETYGKLEAVQYKTQVVTAYYIHVNAGTNYYIKVRAGDNKYMHLKVFKSLPYGYRAKAPEDLVLTGYQVDKNKDDELTGF
B3: clone 241 (designed binder)
chain: MIPGGLSEAKPATPEIQEIVDKVKPQLEEKTGETYGKLEAVQYKTQVVVRVEPTPNDGTNYYIKVRAGDNKYMHLKVFKSLPLVQELWGFEDLVLTGYQVDKNKDDELTGF
B4: clone 242 (designed binder)
chain: MIPGGLSEAKPATPEIQEIVDKVKPQLEEKTGETYGKLEAVQYKTQVVDLNSSVWYQGTNYYIKVRAGDNKYMHLKVFKSLYWLLEIEHREDLVLTGYQVDKNKDDELTGF
B5: clone 243 (designed binder)
chain: MIPGGLSEAKPATPEIQEIVDKVKPQLEEKTGETYGKLEAVQYKTQVVFTYQISYTVGTNYYIKVRAGDNKYMHLKVFKSLRWRYPARKPEDLVLTGYQVDKNKDDELTGF
B6: clone 244 (designed binder)
chain: MIPGGLSEAKPATPEIQEIVDKVKPQLEEKTGETYGKLEAVQYKTQVVRENWYGEFAGTNYYIKVRAGDNKYMHLKVFKSLLYIYRHPNYEDLVLTGYQVDKNKDDELTGF
B7: clone 245 (designed binder)
chain: MIPGGLSEAKPATPEIQEIVDKVKPQLEEKTGETYGKLEAVQYKTQVVTALAWNTQAGTNYYIKVRAGDNKYMHLKVFKSLPWLYRQKSDEDLVLTGYQVDKNKDDELTGF
B8: clone 228 (designed binder)
chain: MIPGGLSEAKPATPEIQEIVDKVKPQLEEKTGETYGKLEAVQYKTQVVPFKIITVWHGTNYYIKVRAGDNKYMHLKVFKSLLERFNFHGEEDLVLTGYQVDKNKDDELTGF
B9: clone 246 (designed binder)
chain: MIPGGLSEAKPATPEIQEIVDKVKPQLEEKTGETYGKLEAVQYKTQVVHIPALKVHAGTNYYIKVRAGDNKYMHLKVFKSLPYWYRHDQEEDLVLTGYQVDKNKDDELTGF
B10: clone 247 (designed binder)
chain: MIPGGLSEAKPATPEIQEIVDKVKPQLEEKTGETYGKLEAVQYKTQVVHHAYAAVYVGTNYYIKVRAGDNKYMHLKVFKSLPYWYRKYPDEDLVLTGYQVDKNKDDELTGF
B11: clone 248 (designed binder)
chain: MIPGGLSEAKPATPEIQEIVDKVKPQLEEKTGETYGKLEAVQYKTQVVYDELYHEKAGTNYYIKVRAGDNKYMHLKVFKSLEYKFRNLEEDLVLTGYQVDKNKDDELTGF
B12: clone 249 (designed binder)
chain: MIPGGLSEAKPATPEIQEIVDKVKPQLEEKTGETYGKLEAVQYKTQVVSWYYPKNVLGTNYYIKVRAGDNKYMHLKVFKSLEDFIAADDDEDLVLTGYQVDKNKDDELTGF
B13: clone 250 (designed binder)
chain: MIPGGLSEAKPATPEIQEIVDKVKPQLEEKTGETYGKLEAVQYKTQVVFLEWHFWEWGTNYYIKVRAGDNKYMHLKVFKSLDSQEFPSHLEDLVLTGYQVDKNKDDELTGF
B14: clone 251 (designed binder)
chain: MIPGGLSEAKPATPEIQEIVDKVKPQLEEKTGETYGKLEAVQYKTQVVSWVRGTNQLGTNYYIKVRAGDNKYMHLKVFKSLEPDWPDFLIEDLVLTGYQVDKNKDDELTGF
B15: clone 252 (designed binder)
chain: MIPGGLSEAKPATPEIQEIVDKVKPQLEEKTGETYGKLEAVQYKTQVVWRKLLSWWKGTNYYIKVRAGDNKYMHLKVFKSLILNPKSWNFEDLVLTGYQVDKNKDDELTGF
B16: clone 253 (designed binder)
chain: MIPGGLSEAKPATPEIQEIVDKVKPQLEEKTGETYGKLEAVQYKTQVVPKSHQTNEQGTNYYIKVRAGDNKYMHLKVFKSLWNENHFSVWEDLVLTGYQVDKNKDDELTGF
B17: clone 254 (designed binder)
chain: MIPGGLSEAKPATPEIQEIVDKVKPQLEEKTGETYGKLEAVQYKTQVVNWNQIDNPLGTNYYIKVRAGDNKYMHLKVFKSLNKDWEDQIIEDLVLTGYQVDKNKDDELTGF
B18: clone 255 (designed binder)
chain: MIPGGLSEAKPATPEIQEIVDKVKPQLEEKTGETYGKLEAVQYKTQVVFWVGLHNQLGTNYYIKVRAGDNKYMHLKVFKSLYYNGDNTQIEDLVLTGYQVDKNKDDELTGF
B19: clone 229 (designed binder)
chain: MIPGGLSEAKPATPEIQEIVDKVKPQLEEKTGETYGKLEAVQYKTQVVQYKIITWWSGTNYYIKVRAGDNKYMHLKVFKSLVYKNKRGGHEDLVLTGYQVDKNKDDELTGF
B20: clone 256 (designed binder)
chain: MIPGGLSEAKPATPEIQEIVDKVKPQLEEKTGETYGKLEAVQYKTQVVFTQPFNEPIGTNYYIKVRAGDNKYMHLKVFKSLYWDDKVGYYEDLVLTGYQVDKNKDDELTGF
B21: clone 257 (designed binder)
chain: MIPGGLSEAKPATPEIQEIVDKVKPQLEEKTGETYGKLEAVQYKTQVVPEYQPQPKAGTNYYIKVRAGDNKYMHLKVFKSLFHFRKPQDREDLVLTGYQVDKNKDDELTGF
B22: clone 258 (designed binder)
chain: MIPGGLSEAKPATPEIQEIVDKVKPQLEEKTGETYGKLEAVQYKTQVVNDPYFQSFSGTNYYIKVRAGDNKYMHLKVFKSLPYWYREPENEDLVLTGYQVDKNKDDELTGF
B23: clone 259 (designed binder)
chain: MIPGGLSEAKPATPEIQEIVDKVKPQLEEKTGETYGKLEAVQYKTQVVHQDDVAWQSGTNYYIKVRAGDNKYMHLKVFKSLEYGWYHLPYEDLVLTGYQVDKNKDDELTGF
B24: clone 260 (designed binder)
chain: MIPGGLSEAKPATPEIQEIVDKVKPQLEEKTGETYGKLEAVQYKTQVVKGYFHTVEAGTNYYIKVRAGDNKYMHLKVFKSLTYHFRTDLNEDLVLTGYQVDKNKDDELTGF
B25: clone 261 (designed binder)
chain: MIPGGLSEAKPATPEIQEIVDKVKPQLEEKTGETYGKLEAVQYKTQVVVDQVWSENAGTNYYIKVRAGDNKYMHLKVFKSLPYLWRKHAVEDLVLTGYQVDKNKDDELTGF
B26: clone 262 (designed binder)
chain: MIPGGLSEAKPATPEIQEIVDKVKPQLEEKTGETYGKLEAVQYKTQVVLSSIWQDVAGTNYYIKVRAGDNKYMHLKVFKSLLYQFRKEPVEDLVLTGYQVDKNKDDELTGF
B27: clone 263 (designed binder)
chain: MIPGGLSEAKPATPEIQEIVDKVKPQLEEKTGETYGKLEAVQYKTQVVTASLYWNYAGTNYYIKVRAGDNKYMHLKVFKSLFYYRGPQPVEDLVLTGYQVDKNKDDELTGF
B28: clone 264 (designed binder)
chain: MIPGGLSEAKPATPEIQEIVDKVKPQLEEKTGETYGKLEAVQYKTQVVSWKQWHNYLGTNYYIKVRAGDNKYMHLKVFKSLYPDGDLILYEDLVLTGYQVDKNKDDELTGF
B29: clone 265 (designed binder)
chain: MIPGGLSEAKPATPEIQEIVDKVKPQLEEKTGETYGKLEAVQYKTQVVQVHLDNSPLGTNYYIKVRAGDNKYMHLKVFKSLQFGEIIWWEEDLVLTGYQVDKNKDDELTGF
B30: clone 230 (designed binder)
chain: MIPGGLSEAKPATPEIQEIVDKVKPQLEEKTGETYGKLEAVQYKTQVVHYYVHYNDQGTNYYIKVRAGDNKYMHLKVFKSLWGENLFAKWEDLVLTGYQVDKNKDDELTGF
B31: clone 266 (designed binder)
chain: MIPGGLSEAKPATPEIQEIVDKVKPQLEEKTGETYGKLEAVQYKTQVVQNNWYLSNYGTNYYIKVRAGDNKYMHLKVFKSLVEERWGLWVEDLVLTGYQVDKNKDDELTGF
B32: clone 267 (designed binder)
chain: MIPGGLSEAKPATPEIQEIVDKVKPQLEEKTGETYGKLEAVQYKTQVVWEWALLLEYGTNYYIKVRAGDNKYMHLKVFKSLHHPWQPAKQEDLVLTGYQVDKNKDDELTGF
B33: clone 268 (designed binder)
chain: MIPGGLSEAKPATPEIQEIVDKVKPQLEEKTGETYGKLEAVQYKTQVVGDSYWEYVSGTNYYIKVRAGDNKYMHLKVFKSLPYRWRPDHAEDLVLTGYQVDKNKDDELTGF
B34: clone 269 (designed binder)
chain: MIPGGLSEAKPATPEIQEIVDKVKPQLEEKTGETYGKLEAVQYKTQVVGQKWWQHKIGTNYYIKVRAGDNKYMHLKVFKSLHSNAWNLQHEDLVLTGYQVDKNKDDELTGF
B35: clone 270 (designed binder)
chain: MIPGGLSEAKPATPEIQEIVDKVKPQLEEKTGETYGKLEAVQYKTQVVLDGLYHVNSGTNYYIKVRAGDNKYMHLKVFKSLFYYYRSEPTEDLVLTGYQVDKNKDDELTGF

biological target: T1, human CD40L (hCD40L antigen) (human, UniProt P29965 113-261, limits assumed); test: ELISA, bacterial lysate on immobilized human CD40L, anti-Myc detection
T1 sequence (looked up): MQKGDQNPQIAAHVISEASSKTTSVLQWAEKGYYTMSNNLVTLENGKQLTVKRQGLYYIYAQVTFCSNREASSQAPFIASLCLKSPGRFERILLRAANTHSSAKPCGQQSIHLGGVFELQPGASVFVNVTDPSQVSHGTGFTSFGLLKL

binding, binds:
B1
B2
B3
B4
B5
B6
B7
B8
B9
B10
B11
B12
B13
B14
B15
B16
B17
B18
B19
B20
B21
B22
B23
B24
B25
B26
B27
B28
B29
B30
B31
B32
B33
B34
B35
